Data source: PubChem BioAssay AID504793 (Drosophila RNAi Screening Center, 2011)

Test: 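Whole-genome screen for parts of the DNA damage checkpoint at G2/M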 (primary screen)
Cells: Drosophila S2R+ cells
Reagent: long dsRNA against Drosophila genes, about 0.25 µg dsRNA per well
Timing: 4 days of dsRNA, then 4 hours of drug before read-out
Treatment: doxorubicin 0.5 µM for 4 hours to cause double-strand breaks, in cells also given a low, harmless dose of dsRNA against nbs to sensitise the assay
Measurement: 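Mitotic index as the number of phospho-histone H3-positive cells in each well following doxorubicin, given as raw counts without normalisation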
Reading the numbers: mitotic cells: higher = more cells in mitosis, weaker G2 arrest
Call rule: 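Genes are called active only when high mitotic counts were reproduced with independent dsRNAs and mitosis was checked for delay without damage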
Meaning of the calls: active = confirmed in follow-up tests; inactive = not confirmed
The deposit covers about 23,000 reagents; below is an unselected part of those with a known target gene and a result. Of all reagents, 62 (0.27%) got an active call. 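Calls come from follow-up tests whose scores are not deposited, so confirmed genes may have low counts here; counts are not normalised per plate.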 The raw values are shown without normalisation. Names joined by + are all predicted targets of the reagent.

| gene | DRSC id | mitotic cells, replicate 1 | mitotic cells, replicate 2 | Call |
| --- | --- | --- | --- | --- |
| CG12766 | DRSC08295 | 5 | – | inactive |
| Obp99c | DRSC16262 | 18 | – | inactive |
| CG7381 | DRSC16238 | 9 | – | inactive |
| CG7381 | DRSC29012 | 3 | – | inactive |
| CG15011 | DRSC08464 | 8 | – | inactive |
| ovm + CG31975 | DRSC22146 | 15 | – | inactive |
| Cp190 | DRSC16607 | 3 | – | inactive |
| CG3841 | DRSC02730 | 5 | 2 | inactive |
| PolQ | DRSC17006 | 5 | – | inactive |
| Doc1 | DRSC11146 | 7 | – | inactive |
| Doc1 | DRSC25859 | 5 | – | inactive |
| RpL7A | DRSC18709 | 14 | – | inactive |
| RpL7A | DRSC28833 | 3 | – | inactive |
| CG14949 | DRSC08408 | 6 | – | inactive |
| CG9040 | DRSC11053 | 8 | – | inactive |
| Polr3C | DRSC14490 | 6 | – | inactive |
| Polr3C | DRSC28198 | 3 | – | inactive |
| loh | DRSC01122 | 10 | – | inactive |
| loh | DRSC02943 | 6 | – | inactive |
| Ccp84Aa | DRSC12586 | 3 | – | inactive |
| Ccp84Aa | DRSC25114 | 13 | – | inactive |
| MED1 | DRSC11808 | 9 | – | inactive |
| capu | DRSC00434 | 7 | – | inactive |
| capu | DRSC27884 | 3 | – | inactive |
| sunz | DRSC12559 | 4 | – | inactive |
| CCT5 | DRSC07357 | 196 | – | inactive |
| CCT5 | DRSC26229 | 40 | – | inactive |
| CR14499 (retired record) | DRSC06470 | 7 | – | inactive |
| CG4022 | DRSC10395 | 4 | – | inactive |
| CG4022 | DRSC27317 | 7 | – | inactive |
| CG45263 | DRSC14360 | 3 | – | inactive |
| CG45263 | DRSC14361 | 7 | – | inactive |
| CG45263 | DRSC14363 | 4 | – | inactive |
| Tsp47F | DRSC07325 | 8 | – | inactive |
| CG3104 | DRSC25569 | 14 | – | inactive |
| Btk | DRSC02008 | 16 | – | inactive |
| Btk | DRSC02666 | – | – | inactive |
| Btk | DRSC22427 | 7 | – | inactive |
| Ir7f | DRSC18012 | 7 | – | inactive |
| Pat1 | DRSC17750 | 2 | – | inactive |
| Pat1 | DRSC27265 | 6 | – | inactive |
| ari-1 | DRSC20308 | 12 | – | inactive |
| ari-1 | DRSC21603 | 9 | – | inactive |
| ari-1 | DRSC27556 | 4 | – | inactive |
| Lsm12a | DRSC19702 | 16 | – | inactive |

Part of the list above in another layout:
gene,DRSC id,"mitotic cells, replicate 1","mitotic cells, replicate 2",Call
capu,DRSC27884,3,,inactive
sunz,DRSC12559,4,,inactive
CCT5,DRSC07357,196,,inactive
CCT5,DRSC26229,40,,inactive
CR14499 (retired record),DRSC06470,7,,inactive
